Assay: CEST NMR of 10 mM glucose analog solutions (MTRasym)
Assay type: physicochemical
Conditions: 11.7 T
Experimental: • Chemicals and Media: 3OMG, D-glucose, D-glucose 6 phosphate, 2-DG and 2-DG-6P sodium salt were obtained from Sigma-Aldrich, Israel; FDG was obtained from Carbosynth Limited, UK. The glucose analogs were prepared at concentration of 10 mM (pH=7.5), containing 10% D2O for NMR field locking. • Cells: DA3-D1-DMBA-3 is a cell line derived from a poorly differentiated mammary adenocarcinoma induced in BALB/C mice by dimethylbenzanthracene. • Animals: BALB/C female mice were purchased and kept in the breeding facility of the Sackler School of Medicine, Tel Aviv University. To induce orthotropic tumors in mice, DA3 cells were injected into the lower left mammary gland of 8 week old (17-22 gr) female BALB/c mice (5×10^5 cells in 100 μL saline). All experiments with animal models were done in compliance with the principles of the National Research Council (NRC) and were approved by the institutional animal care and use committee (IACUC) (# M-12-035). • Preparation of Tumor Extracts: The tumors were surgically excised and weighed quickly and immediately immersed in liquid nitrogen. The frozen tumors were homogenized with a tissue homogenizer, using the methanol/CHCl3/H2O extraction method 19, a dual-phase extraction procedure to extract intracellular metabolites, with a volume ratio of 2:2:1.8, respectively. After centrifugation (−4° C., 4000×g, 12 min), only the upper aqueous phase was kept for analysis. The samples were dried gently by evaporator, than were frozen at −80° C., and lyophilized to dryness for 24 hr. Each sample was dissolved in 0.5 ml D2O (99.98%, Biolab, Israel), adjusted at pH=6.5-7 and inserted into 5 mm tube for NMR. • NMR Spectroscopy: 1H NMR Spectra were recorded at 500 MHz in 5 mm tubes on a Bruker 500 MHz DRX with the following parameters: spectral width 7500 Hz, pulse width 5.5 us (corresponding to a 45° flip angle); data size 16 K; relaxation delay 10 s; number of scans=16. […] The chemical exchange contrast was measured by magnetization transfer asymmetry, MTRasym. […]

CO[C@@H]([C@H](O)[C@H](O)CO)[C@@H](O)C=O [3OMG, 3-O-methylglucose]
CEST percent (MTRasym), peak at 1.2 ppm (10% D2O, pH=7.5, T=37° C., B1 3.6 μT (150 Hz)): 22%
CEST effect at frequency offset of 1.2 ppm (pH ~7.5, rf saturation field 3.6-5.9 μT, T=25° C.): 20-32%
CEST effect compared with the other glucose analogs (pH=7.5, T=37° C., B1=3.6 μT, versus 2-DG, 2-DG-6P, FDG, D-glu, D-glu-6P): significantly higher

Reference: US10736973B2, “Glucose analogs for diagnosis states” (TECHNOLOGY INNOVATION MOMENTUM FUND (ISRAEL) LIMITED …, priority 2014, dated 2020)
